# Data from patent publication US6261768.
# Construct, isoform or probe ends are uncertain for at least one entry. For some assays here: Negatives hold for the conditions tested.
# What was measured:
# Assay in all cases: enzyme reaction in vitro
# [1] = test system: BstNI restriction endonuclease; conditions: purified native protein, protein details: New England Biolabs
# [2] = test system: BslI restriction endonuclease; conditions: wild-type amplification inhibited; pH 8.5, 1 mM DTT, 6 mM MgCl2; purified native protein; protein details: New England Biolabs
# [3] = test system: BsaJI restriction endonuclease; conditions: cleaves; purified native protein; protein details: New England Biolabs; only the site is given
# [4] = test system: AvrII restriction endonuclease; conditions: purified native protein, protein details: New England Biolabs, only the site is given
sequence,measurement,setting,value
"GACTGAATATAAACTTGTGGTAGTTGGACCT (double strand) [K-ras wild-type amplicon (5BKIM/3AKIL, 103 bp)]",activity on this sequence,"[1]; 103 bp digested to 73 bp, NEB2, BSA, 60 C overnight, only the site is given",active
TATAAACTTGTGGTACCTGGAGC (double strand) [K-ras codon 12 wild-type amplicon (5BKIQ/3KiH)],activity on this sequence,[2],active
TATAAACTTGTGGTAGTTGGACCT (double strand) [K-ras codon 12 wild-type amplicon (5BKIT/3KiE)],activity on this sequence,"[1]; amplification fully inhibited by BstNI in REMS-PCR, 100 mM NaCl, 50 mM Tris pH 8.3, 6 mM MgCl2 (5 mM in Ex 4)",active
"TATAAACTTGTGGTAGTTGGACCT / CTGTATCAAAGCTTGGTCCTGGACCAG [3MKiC control amplicon (5BKIT/3MKiC, 156 bp)]",activity on this sequence,"[1]; control fragment absent in all BstNI reactions, only the site is given",active
"TATAAACTTGTGGTAGTTGGACCTAG / GGATGACTCATTAAGGCACTCTTGCCTACGCCC [A549 mutant AG amplicon (5BKIT/3AKIP, 58 bp)]",activity on this sequence,[3],active
same,activity on this sequence,[4]; cleaves,active
"TATAAACTTGTGGTAGTTGGACCTTG / GGATGACTCATTAAGGCACTCTTGCCTACGCCC [Calu I mutant TG amplicon (5BKIT/3AKIP, 58 bp)]",activity on this sequence,[3],active
same,activity on this sequence,[4]; resistant,not active
